PubChem BioAssay AID743454, Peter MacCallum Cancer Centre, 2014
The whole screen tested about 18,000 reagents; this is a part drawn at random. In the full data, 450 (2.5%) are marked active. 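Single biological run; no consistent viability z cut-off exists, so the class columns, not z-scores, define the calls.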 Unmarked entries are inactive.

Test: 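Genes whose loss kills vorinostat-resistant colon cancer cells under vorinostat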 (primary screen)
Cells: human HCT116-VR colon cancer cells, selected for vorinostat resistance
Knock-down reagent: siRNA pool against human genes, 40 nM siRNA pool
Duration: vorinostat for 24 h, read-out about 72 h after transfection
Conditions: vorinostat at 2.5 µM final
Measurement: 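Two measures, CellTiter-Fluor viability and luminescent caspase 3/7 activity, each as fold change against same-plate mock wells, mean of duplicates, then screen-wide robust z-score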
Scale: viability robust z-score: higher = more viable cells than screen typical; caspase robust z-score: higher = more caspase 3/7 activity than screen typical
Rule for the call: 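a knock-down is a hit when classed RV1 or RV2 for lowered viability, or CA1 or CA2 for caspase activation; those lethal without drug were dropped; hits were retested singly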

target gene | viability hit class | caspase hit class | viability robust z-score | caspase robust z-score
AKAP6 | no change | no change | -0.59 | -0.36
XKR9 | no change | no change | -0.13 | -0.76
GMEB2 | no change | no change | 0.99 | 0.04
OR2A12 | no change | no change | -0.97 | 1.2
ASF1A | no change | no change | 0.32 | -0.6
RPGRIP1 | no change | no change | -0.82 | 1.88
PRPF4 | no change | no change | -0.97 | 2.68
LINC02872 | no change | no change | 0.24 | -0.32
FAM89B | no change | no change | -1.15 | -0.57
KATNA1 | no change | no change | -0.94 | -1.23
NCF1 | no change | no change | 0.84 | -0.38
CD47 | no change | no change | 0.74 | 1.5
ELMO2 | no change | no change | -0.83 | -0.13
DRAP1 | no change | no change | 0.68 | -0.58
TRMT10B | no change | no change | 0.5 | 1.1
ZBTB16 | no change | no change | -1.95 | 2.21
GTPBP8 | no change | no change | 0.62 | -0.55
PLA2G4A | no change (active) | CA2 (caspase activation) | -0.78 | 5.14
TENT5D | no change | no change | 1.6 | 0.93
GADD45GIP1 | no change | no change | -0.52 | 0.83
MINDY4 | no change | no change | 0.84 | 0.78
TMEM187 | no change | no change | -0.08 | 1.29
HLA-DQB1 | no change | no change | 0.46 | 0.75
OR5L2 | no change | no change | -1.01 | 1.73
ATP1A4 | no change | no change | 0.41 | 0.95
CHRAC1 | no change | no change | -0.08 | 4
SPIN4 | no change | no change | 0.01 | -0.88
ATP13A3 | no change | no change | 0.6 | 0.08
GPR149 | no change | no change | 0.3 | 0.98
SMG5 | no change | no change | 0.92 | -0.65
ITGA8 | no change | no change | 0.38 | 0.48
DHFR2 | no change | no change | 1.21 | -0.7
BIVM | no change | no change | 0.28 | 0.06

Continued (7 carried over from the part before).
target gene | viability hit class | caspase hit class | viability robust z-score | caspase robust z-score
SPIN4 | no change | no change | 0.01 | -0.88
ATP13A3 | no change | no change | 0.6 | 0.08
GPR149 | no change | no change | 0.3 | 0.98
SMG5 | no change | no change | 0.92 | -0.65
ITGA8 | no change | no change | 0.38 | 0.48
DHFR2 | no change | no change | 1.21 | -0.7
BIVM | no change | no change | 0.28 | 0.06
KIAA1217 | no change | no change | 0.98 | 0.12
AK1 | no change | no change | -0.5 | 3.53
DAP | no change | no change | -1.44 | -0.76
INF2 | no change | no change | -1.87 | 0.11
FBXL19 | no change | no change | -1 | 0.7
TLCD1 | no change | no change | 0.12 | -0.96
TNNT2 | no change | no change | -1.2 | -1.34
LRP12 | no change | no change | -0.54 | -0.55
RBKS | no change | no change | 0.82 | 0.22
CHPT1 | no change | no change | 0.4 | -0.5
CAPN2 | no change | no change | -2.92 | 0.7
TMEM175 | no change | no change | -1.01 | 0.06
GAPDHS | no change | no change | -0.26 | -0.64
FASTK | no change | no change | 0.55 | -0.16
PAFAH1B3 | no change | no change | 1.38 | -0.08
ATP10A | no change | no change | -0.01 | -0.3
TRIM73 | no change | no change | -1.96 | 3.32
DLGAP2 | no change | no change | -0.88 | 0.2
ADAMTS15 | no change | no change | 1.19 | 0.02
ZNF222 | no change | no change | 0.13 | -0.56
SREBF1 | no change | no change | -0.76 | -0.46
ZNF582 | no change | no change | -0.1 | 1.81
MSRB1 | no change | no change | 0.4 | 0.99
LTF | no change | no change | -0.82 | -0.44
